# Assay results from PubChem BioAssay AID504444 (National Center for Advancing Translational Sciences (NCATS), 2011).
# Out of some 360,000 compounds screened, about 7,500 (2.1%) were called active. Inconclusive results, whose numbers are uncertain, are shown with a selection of clear calls. The call rests on the fitted dose curve; in most records, active means well fitted inhibition curve with a large enough effect; inconclusive means small, poorly fitted or top-dose-only effect, or effect the other way; inactive means flat fitted curve, though single readings scatter. Where the call is inconclusive, the potency comes from a doubtful curve fit.
# Experiment: Nrf2 qHTS screen for inhibitors; further: nearly all actives have a fitted effect of over 60% in size
# Details: A549 ARE-Fluc reporter, luciferase luminescence, 18-24 h; activity change, negative = inhibition: at 46 µM (top of the series)
# How it was run: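 Quantitative HTS in A549 cells stably bearing an antioxidant response element-firefly luciferase construct. Inhibition of Nrf2-driven transcription was scored by luminescence after 18-24 h of compound exposure at 37 °C.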
# On the % scale 0 is the no-effect control and ±100 the full control effect; potency means the concentration at half of the fitted maximal effect.
Structure (SMILES),Potency,"activity change, negative = inhibition"
COc1ccc2c(c1)CCc1c(C(=O)N3CCc4ccccc4C3)noc1-2,"inconclusive: 25.9 µM [falling, single point]",
Cc1ccc(C(=O)OCC(=O)Nc2nc(-c3ccccc3)cs2)cc1NC(=O)c1ccco1,"inconclusive: 13 µM [activator, partial curve]",
O=C(NNC(=O)c1ccc(Cl)c(Cl)c1)c1ccncc1,,inactive: 18.3%
O=C(Nc1cccnc1)C12CC3CC(CC(C3)C1)C2,"inconclusive: 0.411 µM [falling, full curve]",
CN(C)c1ccc(/C=C(/NC(=O)c2ccccc2)C(=O)N2CCCC2)cc1,,inactive: 5.36%
Cc1cccc(-c2nc3c4ccccc4nc(NCc4ccc(F)cc4)n3n2)c1,"inconclusive: 10.3 µM [activator, partial curve, poor fit]",
C/C(=N\NC(=O)CSCc1ccc([N+](=O)[O-])cc1)c1ccccc1O,"inconclusive: 25.9 µM [falling, partial curve]",
COc1cc(SC)ccc1C(=O)Nc1ccc2c(c1)OCO2,"inconclusive: 2.06 µM [activator, partial curve]",
O=C(O)c1ccc(NC2=C/C(=N/S(=O)(=O)c3ccccc3)c3ccccc3C2=O)cc1,,inactive: 12.4%
O=C(N/N=C\c1cccc(Cl)c1)c1ccc(Cn2cc(Br)c([N+](=O)[O-])n2)o1,"inconclusive: 29.1 µM [falling, single point]",
Cc1ccc(/C=C2\Sc3ccccc3C2=O)s1,,inactive: 15.9%
Cc1cccc(Cc2c(C)nc3nc(SCC(=O)NCc4ccco4)nn3c2C)c1,"inconclusive: 0.058 µM [falling, full curve, poor fit]",
COc1ccc(Br)cc1CNc1ccccc1,"inconclusive: 20.6 µM [activator, single point]",
O=C(NCCc1ccccc1)C(=O)NCC1CCCO1 (stereo not drawn),"inconclusive: 16.4 µM [activator, partial curve, poor fit]",
CCOc1ccccc1NC(=O)C(C)N(c1ccccc1)S(C)(=O)=O (stereo not drawn),,inactive: -20%
CCn1c(CC(=O)Nc2ccc(C)c(Cl)c2)nnc1SCCOc1ccc(OC)cc1,,inactive: -13.7%
Cc1ccc2cc(CN(Cc3ccco3)S(=O)(=O)c3c(C)ccc4nsnc34)c(=O)[nH]c2c1,"inconclusive: 32.6 µM [falling, single point]",
O=S(=O)(c1ccc(OCc2nc3ccccc3s2)c(Cl)c1)N1CCOCC1,"inconclusive: 5.8 µM [activator, full curve, poor fit]",
Cc1ccc(NS(=O)(=O)c2cc3c(cc2Cl)CCC(=O)N3)cc1C,,inactive: -21.5%
CN1CCN(C(=S)c2ccc(-c3cccc([N+](=O)[O-])c3)o2)CC1,"inconclusive: 4.11 µM [activator, full curve]",
CCc1ccc(/C=N\NC(=O)c2ccc(Br)o2)s1,"inconclusive: 2.59 µM [activator, full curve]",
COc1ccc(C(CNC(=O)c2ccc(S(=O)(=O)N(C)C)cc2)N(C)C)cc1 (stereo not drawn),"inconclusive: 20.6 µM [activator, partial curve]",

Structure (SMILES),Potency,"activity change, negative = inhibition"
Clc1ccc(-n2nnnc2SCc2c(-c3ccccc3)nc3sccn23)cc1,"inconclusive: 13 µM [falling, partial curve, poor fit]",
Cc1cc(C)cc(C(=O)N(NC(=O)Nc2ccc(Cl)cc2)C(C)(C)C)c1,"inconclusive: 16.4 µM [falling, single point]",
Cc1cccc2sc(NC(=O)C3c4ccccc4Oc4ccccc43)nc12,active: 20.6 µM,
O=C(N/N=C/c1sc(=O)n(-c2ccccc2)c1Cl)c1ccccc1,"inconclusive: 25.9 µM [activator, partial curve]",
COc1ccc(-c2ccc(OC)cc2)cc1,"inconclusive: 2.59 µM [activator, partial curve, poor fit]",
CCOC(=O)N1CCN(C(=O)c2ccc3c(c2)N=C(CC)c2cc(C)ccc2S3)CC1,"inconclusive: 20.6 µM [falling, single point]",
COc1cc(/C=C2/SC(=S)N(CC(=O)O)C2=O)ccc1OC(=O)c1ccco1,"inconclusive: 16.4 µM [falling, single point]",
Cc1cc(F)ccc1S(=O)(=O)Nc1ccccc1C(=O)Nc1ccccc1N1CCOCC1,active: 20.6 µM,
Cc1cc(NC(=O)c2ccc(NC(=O)C(C)C)cc2)no1,"inconclusive: 23.1 µM [activator, single point]",
COc1ccc(-c2cn(/N=C/c3ccc(Cl)cc3Cl)c(N)n2)cc1,"inconclusive: 23.1 µM [falling, partial curve, poor fit]",
CCOC(=O)c1ccc(NCc2ccncc2)cc1,"inconclusive: 13 µM [falling, partial curve]",
CCCNC(=O)C(=O)N/N=C/c1ccc(OCc2ccccc2)cc1,,inactive: 7.76%
COc1c2ccoc2c(OC[C@@H](OC(C)=O)C(C)(C)O)c2oc(=O)ccc12,"inconclusive: 13 µM [activator, partial curve, poor fit]",
CN(C)CCCN=Cc1c(-c2ccccc2)[nH]n(-c2nc3ccccc3s2)c1=O,"inconclusive: 10.3 µM [activator, partial curve]",
O=C(CSc1c2c(nc3cc(Cl)ccc13)CCCC2)NCc1ccccc1Cl,"inconclusive: 29.1 µM [falling, single point]",
CN(CC(=O)Nc1ccccc1C(F)(F)F)C(=O)CCc1nc2sc3c(c2c(=O)[nH]1)CCCC3,"inconclusive: 23.1 µM [falling, single point]",
O=c1c2c3c(sc2ncn1/N=C/c1ccccc1)CCCC3,"inconclusive: 29.1 µM [activator, single point]",
COc1ccc(/C=N/n2cnn(Cc3ccccc3Cl)c2=S)cc1OC,active: 18.4 µM,
Cc1nnc(NC(=O)CSc2nccn2-c2ccc(F)cc2)s1,,inactive: -7.23%
CCCCCNC(=O)C1CCC(Cn2c(=S)[nH]c3ccccc3c2=O)CC1 (stereo not drawn),"inconclusive: 25.9 µM [falling, partial curve, poor fit]",
COc1ccc(C/C(=N\O)c2ccc(OC)cc2)cc1,"inconclusive: 18.4 µM [activator, partial curve]",

# By substructure, the compounds so far containing two or more sulfur atoms.
Structure (SMILES),Potency,"activity change, negative = inhibition"
Cc1ccc(/C=C2\Sc3ccccc3C2=O)s1,,inactive: 15.9%
Cc1ccc2cc(CN(Cc3ccco3)S(=O)(=O)c3c(C)ccc4nsnc34)c(=O)[nH]c2c1,"inconclusive: 32.6 µM [falling, single point]",
O=S(=O)(c1ccc(OCc2nc3ccccc3s2)c(Cl)c1)N1CCOCC1,"inconclusive: 5.8 µM [activator, full curve, poor fit]",
Clc1ccc(-n2nnnc2SCc2c(-c3ccccc3)nc3sccn23)cc1,"inconclusive: 13 µM [falling, partial curve, poor fit]",
COc1cc(/C=C2/SC(=S)N(CC(=O)O)C2=O)ccc1OC(=O)c1ccco1,"inconclusive: 16.4 µM [falling, single point]",
Cc1nnc(NC(=O)CSc2nccn2-c2ccc(F)cc2)s1,,inactive: -7.23%
